Publication PMC3402432
No constants are given. Whether binding was seen depends on the method and setting. Binding can be weak; no strength is given. For some assays here: Tags and fused reporters may be left off the sequences shown. For some assays here: In cells and extracts the contact can be indirect.

Legend:
[1] = biological target: GST-E7-Flag fusion protein of HPV10 E7 (human papillomavirus type 10 (HPV10)); assay: pull-down; 20 ug purified GST-E7-Flag incubated with 400 ug HaCaT lysate overnight at 4 C in binding buffer (20 mM Tris HCl pH 7.5, 0.6 mM EDTA, 70 mM NaCl, 0.01% NP-40, protease inhibitors); glutathione sepharose 4B 2 h at 4 C, five washes; immunoblot for pRb and GST; only the target purified
[2] = biological target: GST-E7-Flag fusion protein of HPV10 E7 (human papillomavirus type 10 (HPV10)); assay: pull-down; 20 ug purified GST-E7-Flag incubated with 0.5 ug recombinant His-pRb overnight at 4 C in binding buffer (20 mM Tris HCl pH 7.5, 0.6 mM EDTA, 70 mM NaCl, 0.01% NP-40, protease inhibitors); glutathione sepharose 4B 2 h at 4 C, five washes; immunoblot for pRb, His and GST; both purified

| Binder | binding [1] | binding [2] |
| --- | --- | --- |
| retinoblastoma protein (pRb), endogenous in HaCaT keratinocytes (protein, UniProt P06400 1-928) MPPKTPRKTAATAAAAAAEPPAPPPPPPPEEDPEQDSGPEDLPLVRLEFEETEEPDFTALCQKLKIPDHVRERAWLTWEKVSSVDGVLGGYIQKKKELWGICIFIAAVDLDEMSFTFTELQKNIEISVHKFFNLLKEIDTSTKVDNAMSRLLKKYDVLFALFSKLERTCELIYLTQPSSSISTEINSALVLKVSWITFLLAKGEVLQMEDDLVISFQLMLCVLDYFIKLSPPMLLKEPYKTAVIPINGSPRTPRRGQNRSARIAKQLENDTRIIEVLCKEHECNIDEVKNVYFKNFIPFMNSLGLVTSNGLPEVENLSKRYEEIYLKNKDLDARLFLDHDKTLQTDSIDSFETQRTPRKSNLDEEVNVIPPHTPVRTVMNTIQQLMMILNSASDQPSENLISYFNNCTVNPKESILKRVKDIGYIFKEKFAKAVGQGCVEIGSQRYKLGVRLYYRVMESMLKSEEERLSIQNFSKLLNDNIFHMSLLACALEVVMATYSRSTSQNLDSGTDLSFPWILNVLNLKAFDFYKVIESFIKAEGNLTREMIKHLERCEHRIMESLAWLSDSPLFDLIKQSKDREGPTDHLESACPLNLPLQNNHTAADMYLSPVRSPKKKGSTTRVNSTANAETQATSAFQTQKPLKSTSLSLFYKKVYRLAYLRLNTLCERLLSEHPELEHIIWTLFQHTLQNEYELMRDRHLDQIMMCSMYGICKVKNIDLKFKIIVTAYKDLPHAVQETFKRVLIKEEEYDSIIVFYNSVFMQRLKTNILQYASTRPPTLSPIPHIPRSPYKFPSSPLRIPGGNIYISPLKSPYKISEGLPTPTKMTPRSRILVSIGESFGTSEKFQKINQMVCNSDRVLKRSAEGSNPPKPLKKLRFDIEGSDEADGSKHLPGESKFQQKLAEMTSTRTRMQKQKMNDSMDTSNKEEK | binds |  |
| purified recombinant His-pRb (protein, UniProt P06400 1-928) MPPKTPRKTAATAAAAAAEPPAPPPPPPPEEDPEQDSGPEDLPLVRLEFEETEEPDFTALCQKLKIPDHVRERAWLTWEKVSSVDGVLGGYIQKKKELWGICIFIAAVDLDEMSFTFTELQKNIEISVHKFFNLLKEIDTSTKVDNAMSRLLKKYDVLFALFSKLERTCELIYLTQPSSSISTEINSALVLKVSWITFLLAKGEVLQMEDDLVISFQLMLCVLDYFIKLSPPMLLKEPYKTAVIPINGSPRTPRRGQNRSARIAKQLENDTRIIEVLCKEHECNIDEVKNVYFKNFIPFMNSLGLVTSNGLPEVENLSKRYEEIYLKNKDLDARLFLDHDKTLQTDSIDSFETQRTPRKSNLDEEVNVIPPHTPVRTVMNTIQQLMMILNSASDQPSENLISYFNNCTVNPKESILKRVKDIGYIFKEKFAKAVGQGCVEIGSQRYKLGVRLYYRVMESMLKSEEERLSIQNFSKLLNDNIFHMSLLACALEVVMATYSRSTSQNLDSGTDLSFPWILNVLNLKAFDFYKVIESFIKAEGNLTREMIKHLERCEHRIMESLAWLSDSPLFDLIKQSKDREGPTDHLESACPLNLPLQNNHTAADMYLSPVRSPKKKGSTTRVNSTANAETQATSAFQTQKPLKSTSLSLFYKKVYRLAYLRLNTLCERLLSEHPELEHIIWTLFQHTLQNEYELMRDRHLDQIMMCSMYGICKVKNIDLKFKIIVTAYKDLPHAVQETFKRVLIKEEEYDSIIVFYNSVFMQRLKTNILQYASTRPPTLSPIPHIPRSPYKFPSSPLRIPGGNIYISPLKSPYKISEGLPTPTKMTPRSRILVSIGESFGTSEKFQKINQMVCNSDRVLKRSAEGSNPPKPLKKLRFDIEGSDEADGSKHLPGESKFQQKLAEMTSTRTRMQKQKMNDSMDTSNKEEK |  | binds |
